Article doi:10.1101/2023.07.03.547485 (bioRxiv, 2023)
No constants are given. Whether binding was seen depends on the method and setting. For part of these data: In cells and extracts the contact can be indirect. Some binding calls cover weakened binding; strength is not graded here. For part of these data: Sequences can lack the tags named with a protein.

The chains behind the UniProt entries cited, without tags or fusion partners. Where a name states a change or a piece, a line headed by the entry shows the natural chain unless it says otherwise.
UniProt Q09825, whole entry: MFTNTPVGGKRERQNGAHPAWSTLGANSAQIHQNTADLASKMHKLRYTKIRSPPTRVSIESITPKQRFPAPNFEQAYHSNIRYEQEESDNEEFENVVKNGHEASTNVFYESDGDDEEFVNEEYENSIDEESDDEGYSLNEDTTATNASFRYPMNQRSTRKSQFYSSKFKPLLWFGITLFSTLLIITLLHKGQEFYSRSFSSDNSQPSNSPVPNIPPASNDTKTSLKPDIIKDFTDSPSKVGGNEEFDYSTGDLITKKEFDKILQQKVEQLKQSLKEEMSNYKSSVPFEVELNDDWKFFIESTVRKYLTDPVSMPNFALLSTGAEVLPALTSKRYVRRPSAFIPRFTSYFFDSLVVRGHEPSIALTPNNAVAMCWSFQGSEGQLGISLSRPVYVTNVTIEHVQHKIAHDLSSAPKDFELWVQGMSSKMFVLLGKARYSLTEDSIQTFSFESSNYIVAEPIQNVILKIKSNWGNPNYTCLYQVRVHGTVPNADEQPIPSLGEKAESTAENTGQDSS

Key:
[1] = target: T1, Mis18-3Flag (S. pombe) (UniProt Q9P802); experiment: co-IP
T1 sequence: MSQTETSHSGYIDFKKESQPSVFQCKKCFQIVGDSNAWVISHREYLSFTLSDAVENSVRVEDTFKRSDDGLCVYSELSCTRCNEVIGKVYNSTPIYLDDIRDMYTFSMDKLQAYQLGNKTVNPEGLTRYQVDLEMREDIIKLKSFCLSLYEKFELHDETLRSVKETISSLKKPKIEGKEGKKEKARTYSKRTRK

[2] = target: 6His-Sad1(2-167) (S. pombe) (UniProt Q09825); experiment: SEC
[3] = target: Sad1-3Flag (S. pombe) (UniProt Q09825); experiment: co-IP
[4] = target: 6His-MBP-Sad1(2-167) (S. pombe) (UniProt Q09825); experiment: pull-down

Molecule	binding [4]	further results
Sad1-3V5 (C-terminally 3xV5-tagged Sad1) (from UniProt Q09825 1-514)		binding [1]: binds
6His-Mis18 full length (protein, UniProt Q9P802 1-194) MSQTETSHSGYIDFKKESQPSVFQCKKCFQIVGDSNAWVISHREYLSFTLSDAVENSVRVEDTFKRSDDGLCVYSELSCTRCNEVIGKVYNSTPIYLDDIRDMYTFSMDKLQAYQLGNKTVNPEGLTRYQVDLEMREDIIKLKSFCLSLYEKFELHDETLRSVKETISSLKKPKIEGKEGKKEKARTYSKRTRK		binding [2]: binds
Mis18-3V5 (protein, UniProt Q9P802 1-194) MSQTETSHSGYIDFKKESQPSVFQCKKCFQIVGDSNAWVISHREYLSFTLSDAVENSVRVEDTFKRSDDGLCVYSELSCTRCNEVIGKVYNSTPIYLDDIRDMYTFSMDKLQAYQLGNKTVNPEGLTRYQVDLEMREDIIKLKSFCLSLYEKFELHDETLRSVKETISSLKKPKIEGKEGKKEKARTYSKRTRK		binding [3]: binds
6His-3C-Mis18(1-120) (domain or fragment, UniProt Q9P802 1-120) MSQTETSHSGYIDFKKESQPSVFQCKKCFQIVGDSNAWVISHREYLSFTLSDAVENSVRVEDTFKRSDDGLCVYSELSCTRCNEVIGKVYNSTPIYLDDIRDMYTFSMDKLQAYQLGNKT	no binding (tested: 5 μM)	
6His-msfGFP-TEV-Mis18(121-194) (domain or fragment, UniProt Q9P802 121-194) VNPEGLTRYQVDLEMREDIIKLKSFCLSLYEKFELHDETLRSVKETISSLKKPKIEGKEGKKEKARTYSKRTRK	no binding (tested: 5 μM)	
6His-3C-Mis18(1-168) (domain or fragment, UniProt Q9P802 1-168) MSQTETSHSGYIDFKKESQPSVFQCKKCFQIVGDSNAWVISHREYLSFTLSDAVENSVRVEDTFKRSDDGLCVYSELSCTRCNEVIGKVYNSTPIYLDDIRDMYTFSMDKLQAYQLGNKTVNPEGLTRYQVDLEMREDIIKLKSFCLSLYEKFELHDETLRSVKETIS	no binding (tested: 5 μM)	
